In the supplement of paper PMC12823440, “Inhibitors supercharge kinase turnover through native proteolytic circuits” (Nature, 2025):
Counter-ions that a name gives are not always drawn. The list shows a part of the results. Hit calls seldom repeat between salt and free forms of one compound.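 In K562 cells expressing nanoluciferase-fused kinases, luminescence was recorded at 4 h intervals between 2 and 18 h, normalized as percent of control with DMSO at 100% and a positive control at 0%. A significant (2 sigma) signal drop marks a time point as decreased. The authors' rule for a hit is not shown and takes in more than the number of time points.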

The chains behind the UniProt entries cited, without tags or fusion partners. Where a name states a change or a piece, a line headed by the entry shows the natural chain unless it says otherwise.
UniProt Q9UBF8: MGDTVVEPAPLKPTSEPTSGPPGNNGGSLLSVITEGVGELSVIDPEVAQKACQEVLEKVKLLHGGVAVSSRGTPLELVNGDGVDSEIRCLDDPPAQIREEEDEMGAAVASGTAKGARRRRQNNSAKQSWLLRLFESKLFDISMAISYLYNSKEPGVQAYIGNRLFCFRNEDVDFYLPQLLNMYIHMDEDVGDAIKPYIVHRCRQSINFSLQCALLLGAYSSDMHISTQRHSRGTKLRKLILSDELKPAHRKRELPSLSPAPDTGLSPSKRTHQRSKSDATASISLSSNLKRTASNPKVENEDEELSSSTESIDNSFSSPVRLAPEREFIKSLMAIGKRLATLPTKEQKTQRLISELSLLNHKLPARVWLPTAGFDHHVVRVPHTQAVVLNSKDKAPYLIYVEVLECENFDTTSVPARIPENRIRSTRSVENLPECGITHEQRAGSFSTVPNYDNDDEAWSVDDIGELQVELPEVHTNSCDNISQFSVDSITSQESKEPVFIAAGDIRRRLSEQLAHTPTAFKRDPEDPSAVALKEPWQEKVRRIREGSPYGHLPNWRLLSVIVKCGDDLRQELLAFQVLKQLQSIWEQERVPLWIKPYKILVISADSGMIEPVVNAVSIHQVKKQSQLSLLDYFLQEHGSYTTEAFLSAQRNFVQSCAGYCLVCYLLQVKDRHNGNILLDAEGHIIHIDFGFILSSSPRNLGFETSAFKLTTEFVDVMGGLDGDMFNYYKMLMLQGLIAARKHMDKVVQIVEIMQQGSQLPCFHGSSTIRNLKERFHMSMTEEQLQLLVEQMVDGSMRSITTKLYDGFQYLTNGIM
UniProt P53350, whole entry: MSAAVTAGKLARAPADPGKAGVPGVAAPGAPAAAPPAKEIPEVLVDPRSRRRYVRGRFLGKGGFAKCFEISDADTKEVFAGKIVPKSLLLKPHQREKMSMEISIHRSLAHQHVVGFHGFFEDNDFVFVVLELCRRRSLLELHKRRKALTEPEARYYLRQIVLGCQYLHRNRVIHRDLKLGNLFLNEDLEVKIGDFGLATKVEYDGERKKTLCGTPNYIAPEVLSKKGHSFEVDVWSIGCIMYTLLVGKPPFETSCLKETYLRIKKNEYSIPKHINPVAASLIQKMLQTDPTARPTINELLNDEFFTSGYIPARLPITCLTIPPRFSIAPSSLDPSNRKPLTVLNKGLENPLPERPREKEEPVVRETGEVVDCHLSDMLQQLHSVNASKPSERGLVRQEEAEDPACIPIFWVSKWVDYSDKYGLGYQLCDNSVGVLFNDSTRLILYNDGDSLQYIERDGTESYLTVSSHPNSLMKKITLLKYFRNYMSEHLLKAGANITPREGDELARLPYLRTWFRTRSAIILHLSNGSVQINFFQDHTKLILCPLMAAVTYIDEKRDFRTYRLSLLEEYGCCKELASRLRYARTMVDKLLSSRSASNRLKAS
UniProt Q14289, whole entry, looked up: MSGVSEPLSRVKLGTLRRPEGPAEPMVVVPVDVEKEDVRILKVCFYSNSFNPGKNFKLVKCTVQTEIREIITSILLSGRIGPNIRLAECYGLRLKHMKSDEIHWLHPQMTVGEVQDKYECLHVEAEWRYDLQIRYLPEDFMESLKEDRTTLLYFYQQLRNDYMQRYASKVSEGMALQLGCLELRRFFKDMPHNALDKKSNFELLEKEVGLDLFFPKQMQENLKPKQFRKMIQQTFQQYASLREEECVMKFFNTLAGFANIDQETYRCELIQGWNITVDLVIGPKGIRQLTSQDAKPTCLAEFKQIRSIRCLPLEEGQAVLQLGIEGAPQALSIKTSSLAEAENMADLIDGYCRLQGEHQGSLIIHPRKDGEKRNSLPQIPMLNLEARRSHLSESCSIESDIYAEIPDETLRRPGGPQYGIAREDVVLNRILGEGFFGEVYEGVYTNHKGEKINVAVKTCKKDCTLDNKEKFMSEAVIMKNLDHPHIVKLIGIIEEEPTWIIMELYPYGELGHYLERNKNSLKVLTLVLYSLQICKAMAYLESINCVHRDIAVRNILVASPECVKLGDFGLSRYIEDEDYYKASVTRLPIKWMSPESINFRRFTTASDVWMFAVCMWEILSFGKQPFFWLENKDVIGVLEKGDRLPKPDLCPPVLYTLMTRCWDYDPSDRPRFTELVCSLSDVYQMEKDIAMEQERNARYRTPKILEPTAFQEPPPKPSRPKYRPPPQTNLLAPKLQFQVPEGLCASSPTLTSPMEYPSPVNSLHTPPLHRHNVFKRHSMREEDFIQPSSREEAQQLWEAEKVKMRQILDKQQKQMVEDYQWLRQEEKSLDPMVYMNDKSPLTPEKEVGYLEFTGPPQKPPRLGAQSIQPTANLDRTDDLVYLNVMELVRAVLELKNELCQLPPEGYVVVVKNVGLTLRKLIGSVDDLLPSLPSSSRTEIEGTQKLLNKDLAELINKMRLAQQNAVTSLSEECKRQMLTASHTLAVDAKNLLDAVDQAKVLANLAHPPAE
UniProt P07949, whole entry, looked up: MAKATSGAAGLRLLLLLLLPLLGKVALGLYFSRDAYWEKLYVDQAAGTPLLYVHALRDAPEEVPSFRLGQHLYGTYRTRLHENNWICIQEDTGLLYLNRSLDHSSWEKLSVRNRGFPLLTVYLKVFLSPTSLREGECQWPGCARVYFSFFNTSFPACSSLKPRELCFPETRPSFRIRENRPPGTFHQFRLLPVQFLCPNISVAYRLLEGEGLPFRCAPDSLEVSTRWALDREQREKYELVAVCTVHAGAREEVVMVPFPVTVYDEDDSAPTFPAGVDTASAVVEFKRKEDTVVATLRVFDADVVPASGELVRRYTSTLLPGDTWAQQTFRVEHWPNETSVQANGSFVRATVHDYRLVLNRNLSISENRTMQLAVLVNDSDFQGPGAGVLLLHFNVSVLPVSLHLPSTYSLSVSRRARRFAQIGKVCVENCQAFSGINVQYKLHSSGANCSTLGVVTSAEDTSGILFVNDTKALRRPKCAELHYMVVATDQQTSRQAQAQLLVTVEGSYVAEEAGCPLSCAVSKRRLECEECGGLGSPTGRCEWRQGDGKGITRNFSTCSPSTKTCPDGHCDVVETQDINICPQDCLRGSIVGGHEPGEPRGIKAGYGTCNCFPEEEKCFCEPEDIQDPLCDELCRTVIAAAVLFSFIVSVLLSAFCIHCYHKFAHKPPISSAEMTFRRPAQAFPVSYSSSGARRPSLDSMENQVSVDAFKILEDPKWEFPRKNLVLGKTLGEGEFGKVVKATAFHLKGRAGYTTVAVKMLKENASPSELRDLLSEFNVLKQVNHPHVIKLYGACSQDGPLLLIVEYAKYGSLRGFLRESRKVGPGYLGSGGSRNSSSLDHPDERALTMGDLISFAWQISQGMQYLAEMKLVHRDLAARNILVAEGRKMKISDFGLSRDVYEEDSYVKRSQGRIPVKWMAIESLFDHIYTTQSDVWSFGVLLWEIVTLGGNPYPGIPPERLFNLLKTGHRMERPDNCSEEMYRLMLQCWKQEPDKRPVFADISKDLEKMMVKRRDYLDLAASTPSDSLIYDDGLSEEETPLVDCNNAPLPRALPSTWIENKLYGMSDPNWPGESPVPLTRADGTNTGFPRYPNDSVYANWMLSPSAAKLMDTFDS
UniProt P07949, whole entry M918T, looked up: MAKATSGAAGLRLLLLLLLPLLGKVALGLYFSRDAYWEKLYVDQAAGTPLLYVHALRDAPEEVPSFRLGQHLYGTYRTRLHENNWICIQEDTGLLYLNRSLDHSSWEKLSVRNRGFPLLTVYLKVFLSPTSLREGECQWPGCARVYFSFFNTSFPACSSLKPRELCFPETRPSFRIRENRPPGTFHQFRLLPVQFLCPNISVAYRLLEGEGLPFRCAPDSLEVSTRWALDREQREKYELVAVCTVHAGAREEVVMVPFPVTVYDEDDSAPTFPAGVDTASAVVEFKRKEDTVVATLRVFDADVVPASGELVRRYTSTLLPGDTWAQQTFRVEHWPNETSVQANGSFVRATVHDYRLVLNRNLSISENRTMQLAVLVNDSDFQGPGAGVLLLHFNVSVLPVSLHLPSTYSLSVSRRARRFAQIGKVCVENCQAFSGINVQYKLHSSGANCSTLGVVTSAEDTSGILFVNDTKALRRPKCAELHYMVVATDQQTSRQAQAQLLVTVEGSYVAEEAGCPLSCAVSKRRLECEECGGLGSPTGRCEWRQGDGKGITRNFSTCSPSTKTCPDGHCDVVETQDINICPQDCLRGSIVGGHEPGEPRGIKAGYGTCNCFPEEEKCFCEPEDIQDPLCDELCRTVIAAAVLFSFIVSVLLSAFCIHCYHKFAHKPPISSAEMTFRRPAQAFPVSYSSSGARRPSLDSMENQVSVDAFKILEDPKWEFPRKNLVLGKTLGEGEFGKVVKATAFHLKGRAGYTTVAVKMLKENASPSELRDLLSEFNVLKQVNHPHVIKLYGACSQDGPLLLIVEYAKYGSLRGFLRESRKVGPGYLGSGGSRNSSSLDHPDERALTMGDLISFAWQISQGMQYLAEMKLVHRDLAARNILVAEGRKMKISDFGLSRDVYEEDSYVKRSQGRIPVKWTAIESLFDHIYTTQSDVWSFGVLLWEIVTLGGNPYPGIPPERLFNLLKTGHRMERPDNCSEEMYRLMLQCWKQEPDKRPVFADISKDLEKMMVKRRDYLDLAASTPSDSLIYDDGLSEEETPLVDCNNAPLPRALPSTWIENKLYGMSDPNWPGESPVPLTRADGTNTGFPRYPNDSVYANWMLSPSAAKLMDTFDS
UniProt Q13546: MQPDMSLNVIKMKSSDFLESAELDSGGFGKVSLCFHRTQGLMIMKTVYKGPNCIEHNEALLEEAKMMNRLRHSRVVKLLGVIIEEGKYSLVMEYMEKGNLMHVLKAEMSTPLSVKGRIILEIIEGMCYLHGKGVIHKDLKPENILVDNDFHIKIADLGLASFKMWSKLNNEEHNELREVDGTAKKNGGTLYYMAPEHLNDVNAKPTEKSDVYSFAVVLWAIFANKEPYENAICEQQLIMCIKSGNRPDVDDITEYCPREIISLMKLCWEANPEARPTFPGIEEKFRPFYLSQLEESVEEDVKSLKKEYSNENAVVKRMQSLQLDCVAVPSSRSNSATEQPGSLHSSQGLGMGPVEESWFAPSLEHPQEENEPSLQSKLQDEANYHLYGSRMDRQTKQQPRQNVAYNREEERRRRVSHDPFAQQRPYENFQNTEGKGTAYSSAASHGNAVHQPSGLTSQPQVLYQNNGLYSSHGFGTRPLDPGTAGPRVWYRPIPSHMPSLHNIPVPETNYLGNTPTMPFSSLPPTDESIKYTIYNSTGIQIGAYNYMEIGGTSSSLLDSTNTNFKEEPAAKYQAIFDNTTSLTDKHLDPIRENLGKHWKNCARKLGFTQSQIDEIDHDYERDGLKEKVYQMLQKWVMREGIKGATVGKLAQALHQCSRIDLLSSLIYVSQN
UniProt Q9NYA1, whole entry: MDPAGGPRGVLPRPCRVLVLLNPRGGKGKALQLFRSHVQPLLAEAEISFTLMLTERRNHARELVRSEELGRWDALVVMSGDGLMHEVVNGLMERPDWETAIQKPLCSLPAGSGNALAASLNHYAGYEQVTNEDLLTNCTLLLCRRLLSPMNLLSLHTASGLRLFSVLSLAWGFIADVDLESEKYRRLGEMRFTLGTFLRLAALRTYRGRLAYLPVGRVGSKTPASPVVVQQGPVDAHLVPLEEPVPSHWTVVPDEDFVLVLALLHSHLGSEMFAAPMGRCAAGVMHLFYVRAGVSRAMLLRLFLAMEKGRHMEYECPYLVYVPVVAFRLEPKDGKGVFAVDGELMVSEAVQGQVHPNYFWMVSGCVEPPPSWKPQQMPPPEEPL
UniProt Q9Y6E0: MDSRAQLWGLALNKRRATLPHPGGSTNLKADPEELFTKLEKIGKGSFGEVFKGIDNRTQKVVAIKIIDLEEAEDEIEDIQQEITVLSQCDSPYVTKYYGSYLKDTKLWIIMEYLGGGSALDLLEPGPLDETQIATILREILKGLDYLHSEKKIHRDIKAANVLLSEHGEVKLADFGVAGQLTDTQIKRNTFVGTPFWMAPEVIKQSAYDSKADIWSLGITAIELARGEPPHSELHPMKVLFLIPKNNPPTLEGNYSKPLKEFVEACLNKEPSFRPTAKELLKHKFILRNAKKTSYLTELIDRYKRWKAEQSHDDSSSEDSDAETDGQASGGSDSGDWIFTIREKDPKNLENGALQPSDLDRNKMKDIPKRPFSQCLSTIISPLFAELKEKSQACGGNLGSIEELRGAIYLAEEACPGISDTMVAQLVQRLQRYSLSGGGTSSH

Key:
Assay in all cases: kinase-Nluc reporter destabilization hit call (1 = scored as downregulated) (binary); higher = compound decreases kinase abundance
Settings in all cases: K562, 2-18 h
PDPK1 = PDPK1 (UniProt O15530)
PIK4CA = PIK4CA (UniProt P42356)
PIK4CB = PIK4CB (UniProt Q9UBF8)
PLK1 = PLK1 (UniProt P53350)
PRKAA1 = PRKAA1 (UniProt Q13131)
PRKCA = PRKCA (UniProt P17252)
PTK2 = PTK2 (UniProt Q05397)
PTK2B = PTK2B (UniProt Q14289)
RAF1 = RAF1 (UniProt P04049)
[1] = target: RAF1_S257L (clone: RAF1_mut) (UniProt P04049)
RET = RET (UniProt P07949)
[2] = target: RET_M918T (clone: RET_mut) (UniProt P07949)
RIOK1 = RIOK1 (UniProt Q9BRS2)
RIPK1 = RIPK1 (UniProt Q13546)
RIPK2 = RIPK2 (UniProt O43353)
ROR2 = ROR2 (UniProt Q01974)
RPS6KA1 = RPS6KA1 (UniProt Q15418)
SPHK1 = SPHK1 (UniProt Q9NYA1)
SRC = SRC (UniProt P12931)
STK24 = STK24 (UniProt Q9Y6E0)

Measured: kinase-Nluc reporter destabilization hit call

Cc1cccc(/C=N/Nc2cc(N3CCOCC3)nc(OCCc3ccccn3)n2)c1 [Apilimod]
inactive: PDPK1; 2.5 µM 0 | PIK4CA; 2.5 µM 0 | PIK4CB; 2.5 µM 0 | PLK1; 2.5 µM 0 | PRKAA1; 2.5 µM 0 | PRKCA; 2.5 µM 0 | PTK2; 2.5 µM 0 | PTK2B; 2.5 µM 0 | RAF1; 2.5 µM 0 | [1]; 2.5 µM 0 | RET; 2.5 µM 0 | [2]; 2.5 µM 0 | RIOK1; 2.5 µM 0 | RIPK1; 2.5 µM 0 | RIPK2; 2.5 µM 0 | ROR2; 2.5 µM 0 | RPS6KA1; 2.5 µM 0 | SPHK1; 2.5 µM 0 | SRC; 2.5 µM 0 | STK24; 2.5 µM 0

COc1cc2nccc(Nc3cc(OC)c(OC)c(OC)c3)c2cc1OC [GAK inhibitor 49 (hydrochloride)]
inactive: PDPK1; 10 µM 0 | PIK4CA; 10 µM 0 | PIK4CB; 10 µM 0 | PLK1; 10 µM 0 | PRKAA1; 10 µM 0 | PRKCA; 10 µM 0 | PTK2; 10 µM 0 | PTK2B; 10 µM 0 | RAF1; 10 µM 0 | [1]; 10 µM 0 | RET; 10 µM 0 | [2]; 10 µM 0 | RIOK1; 10 µM 0 | RIPK1; 10 µM 0 | RIPK2; 10 µM 0 | ROR2; 10 µM 0 | RPS6KA1; 10 µM 0 | SPHK1; 10 µM 0 | SRC; 10 µM 0 | STK24; 10 µM 0

CNC(=O)c1ccccc1Nc1cc(Nc2ccc(N3CCOCC3)cc2OC)ncc1C(F)(F)F [PND-1186 (hydrochloride)]
inactive: PDPK1; 10 µM 0 | PIK4CA; 10 µM 0 | PIK4CB; 10 µM 0 | PLK1; 10 µM 0 | PRKAA1; 10 µM 0 | PRKCA; 10 µM 0 | PTK2; 10 µM 0 | PTK2B; 10 µM 0 | RAF1; 10 µM 0 | [1]; 10 µM 0 | RET; 10 µM 0 | [2]; 10 µM 0 | RIOK1; 10 µM 0 | RIPK1; 10 µM 0 | RIPK2; 10 µM 0 | ROR2; 10 µM 0 | RPS6KA1; 10 µM 0 | SPHK1; 10 µM 0 | SRC; 10 µM 0 | STK24; 10 µM 0

FC(F)(F)c1ccc(CNc2ccc(Cc3c[nH]c4ncc(Cl)cc34)cn2)cn1 [Pexidartinib]
inactive: PDPK1; 10 µM 0 | PIK4CA; 10 µM 0 | PIK4CB; 10 µM 0 | PLK1; 10 µM 0 | PRKAA1; 10 µM 0 | PRKCA; 10 µM 0 | PTK2; 10 µM 0 | PTK2B; 10 µM 0 | RAF1; 10 µM 0 | [1]; 10 µM 0 | RET; 10 µM 0 | [2]; 10 µM 0 | RIOK1; 10 µM 0 | RIPK1; 10 µM 0 | RIPK2; 10 µM 0 | ROR2; 10 µM 0 | RPS6KA1; 10 µM 0 | SPHK1; 10 µM 0 | SRC; 10 µM 0 | STK24; 10 µM 0

COC(=O)[C@H](CC(C)C)NC(=O)c1ccc(NC[C@@H](N)CS)cc1-c1cccc2ccccc12 [GGTI298 (Trifluoroacetate)]
inactive: PDPK1; 10 µM 0 | PIK4CA; 10 µM 0 | PIK4CB; 10 µM 0 | PLK1; 10 µM 0 | PRKAA1; 10 µM 0 | PRKCA; 10 µM 0 | PTK2; 10 µM 0 | PTK2B; 10 µM 0 | RAF1; 10 µM 0 | [1]; 10 µM 0 | RET; 10 µM 0 | [2]; 10 µM 0 | RIOK1; 10 µM 0 | RIPK1; 10 µM 0 | RIPK2; 10 µM 0 | ROR2; 10 µM 0 | RPS6KA1; 10 µM 0 | SPHK1; 10 µM 0 | SRC; 10 µM 0 | STK24; 10 µM 0

COc1ncc(F)cc1CNc1ccc(Cc2c[nH]c3ncc(C)cc23)c(F)n1 [PLX5622 (hemifumarate)]
inactive: PDPK1; 10 µM 0 | PIK4CA; 10 µM 0 | PIK4CB; 10 µM 0 | PLK1; 10 µM 0 | PRKAA1; 10 µM 0 | PRKCA; 10 µM 0 | PTK2; 10 µM 0 | PTK2B; 10 µM 0 | RAF1; 10 µM 0 | [1]; 10 µM 0 | RET; 10 µM 0 | [2]; 10 µM 0 | RIOK1; 10 µM 0 | RIPK1; 10 µM 0 | RIPK2; 10 µM 0 | ROR2; 10 µM 0 | RPS6KA1; 10 µM 0 | SPHK1; 10 µM 0 | SRC; 10 µM 0 | STK24; 10 µM 0

COc1ncc(F)cc1CNc1ccc(Cc2c[nH]c3ncc(C)cc23)c(F)n1
inactive: PDPK1; 10 µM 0 | PIK4CA; 10 µM 0 | PIK4CB; 10 µM 0 | PLK1; 10 µM 0 | PRKAA1; 10 µM 0 | PRKCA; 10 µM 0 | PTK2; 10 µM 0 | PTK2B; 10 µM 0 | RAF1; 10 µM 0 | [1]; 10 µM 0 | RET; 10 µM 0 | [2]; 10 µM 0 | RIOK1; 10 µM 0 | RIPK1; 10 µM 0 | RIPK2; 10 µM 0 | ROR2; 10 µM 0 | RPS6KA1; 10 µM 0 | SPHK1; 10 µM 0 | SRC; 10 µM 0 | STK24; 10 µM 0

C=CC(=O)Nc1cc(Nc2nccc(-c3cn(C4CC4)c4ccccc34)n2)c(OC)cc1N(C)CCN(C)C [Almonertinib]
inactive: PDPK1; 2.5 µM 0 | PIK4CA; 2.5 µM 0 | PIK4CB; 2.5 µM 0 | PLK1; 2.5 µM 0 | PRKAA1; 2.5 µM 0 | PRKCA; 2.5 µM 0 | PTK2; 2.5 µM 0 | PTK2B; 2.5 µM 0 | RAF1; 2.5 µM 0 | [1]; 2.5 µM 0 | RET; 2.5 µM 0 | [2]; 2.5 µM 0 | RIOK1; 2.5 µM 0 | RIPK1; 2.5 µM 0 | RIPK2; 2.5 µM 0 | ROR2; 2.5 µM 0 | RPS6KA1; 2.5 µM 0 | SPHK1; 2.5 µM 0 | SRC; 2.5 µM 0 | STK24; 2.5 µM 0

Pulled one by one from the list above, two records:
CNC(=O)c1ccccc1Nc1cc(Nc2ccc(N3CCOCC3)cc2OC)ncc1C(F)(F)F [PND-1186 (hydrochloride)]
inactive: PDPK1; 10 µM 0 | PIK4CA; 10 µM 0 | PIK4CB; 10 µM 0 | PLK1; 10 µM 0 | PRKAA1; 10 µM 0 | PRKCA; 10 µM 0 | PTK2; 10 µM 0 | PTK2B; 10 µM 0 | RAF1; 10 µM 0 | [1]; 10 µM 0 | RET; 10 µM 0 | [2]; 10 µM 0 | RIOK1; 10 µM 0 | RIPK1; 10 µM 0 | RIPK2; 10 µM 0 | ROR2; 10 µM 0 | RPS6KA1; 10 µM 0 | SPHK1; 10 µM 0 | SRC; 10 µM 0 | STK24; 10 µM 0

C=CC(=O)Nc1cc(Nc2nccc(-c3cn(C4CC4)c4ccccc34)n2)c(OC)cc1N(C)CCN(C)C [Almonertinib]
inactive: PDPK1; 2.5 µM 0 | PIK4CA; 2.5 µM 0 | PIK4CB; 2.5 µM 0 | PLK1; 2.5 µM 0 | PRKAA1; 2.5 µM 0 | PRKCA; 2.5 µM 0 | PTK2; 2.5 µM 0 | PTK2B; 2.5 µM 0 | RAF1; 2.5 µM 0 | [1]; 2.5 µM 0 | RET; 2.5 µM 0 | [2]; 2.5 µM 0 | RIOK1; 2.5 µM 0 | RIPK1; 2.5 µM 0 | RIPK2; 2.5 µM 0 | ROR2; 2.5 µM 0 | RPS6KA1; 2.5 µM 0 | SPHK1; 2.5 µM 0 | SRC; 2.5 µM 0 | STK24; 2.5 µM 0

Additional results:

C=CC(=O)Nc1cc(Nc2nccc(-c3cn(C)c4ccccc34)n2)c(OC)cc1N(C)CCN(C)C [Osimertinib mesylate]
inactive: PDPK1; 2.5 µM 0 | PIK4CA; 2.5 µM 0 | PIK4CB; 2.5 µM 0 | PLK1; 2.5 µM 0 | PRKAA1; 2.5 µM 0 | PRKCA; 2.5 µM 0 | PTK2; 2.5 µM 0 | PTK2B; 2.5 µM 0 | RAF1; 2.5 µM 0 | [1]; 2.5 µM 0 | RET; 2.5 µM 0 | [2]; 2.5 µM 0 | RIOK1; 2.5 µM 0 | RIPK1; 2.5 µM 0 | RIPK2; 2.5 µM 0 | ROR2; 2.5 µM 0 | RPS6KA1; 2.5 µM 0 | SPHK1; 2.5 µM 0 | SRC; 2.5 µM 0 | STK24; 2.5 µM 0
